In PMC11604978:
No constants are given. Whether binding was seen depends on the method and setting. In cells and extracts the contact can be indirect. Some binding calls cover weakened binding; strength is not graded here.

T1: VE-cadherin (human (endogenous in HUVEC)) (UniProt P33151)
T1 sequence: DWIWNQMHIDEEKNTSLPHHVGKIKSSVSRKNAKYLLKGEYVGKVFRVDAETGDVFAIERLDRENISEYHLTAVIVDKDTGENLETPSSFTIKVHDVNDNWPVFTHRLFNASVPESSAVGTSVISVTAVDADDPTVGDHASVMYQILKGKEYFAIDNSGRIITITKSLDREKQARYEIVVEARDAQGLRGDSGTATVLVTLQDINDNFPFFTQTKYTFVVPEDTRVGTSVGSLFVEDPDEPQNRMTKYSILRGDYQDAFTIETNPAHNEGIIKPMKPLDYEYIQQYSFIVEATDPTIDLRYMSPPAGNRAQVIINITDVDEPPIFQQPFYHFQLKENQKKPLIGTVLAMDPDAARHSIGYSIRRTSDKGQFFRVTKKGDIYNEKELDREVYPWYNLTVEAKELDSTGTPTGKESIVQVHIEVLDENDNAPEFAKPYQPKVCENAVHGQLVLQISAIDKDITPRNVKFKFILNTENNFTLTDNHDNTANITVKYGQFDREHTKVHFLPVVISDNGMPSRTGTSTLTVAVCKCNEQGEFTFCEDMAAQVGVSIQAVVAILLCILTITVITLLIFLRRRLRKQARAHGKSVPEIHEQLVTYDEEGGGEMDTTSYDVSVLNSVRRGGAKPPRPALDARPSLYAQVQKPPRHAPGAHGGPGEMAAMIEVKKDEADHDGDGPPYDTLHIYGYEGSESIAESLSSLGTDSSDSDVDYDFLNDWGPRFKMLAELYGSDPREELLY

T2: VE-cadherin (mouse) (mouse (endogenous in brain and primary brain ECs)) (UniProt P55284)
T2 sequence: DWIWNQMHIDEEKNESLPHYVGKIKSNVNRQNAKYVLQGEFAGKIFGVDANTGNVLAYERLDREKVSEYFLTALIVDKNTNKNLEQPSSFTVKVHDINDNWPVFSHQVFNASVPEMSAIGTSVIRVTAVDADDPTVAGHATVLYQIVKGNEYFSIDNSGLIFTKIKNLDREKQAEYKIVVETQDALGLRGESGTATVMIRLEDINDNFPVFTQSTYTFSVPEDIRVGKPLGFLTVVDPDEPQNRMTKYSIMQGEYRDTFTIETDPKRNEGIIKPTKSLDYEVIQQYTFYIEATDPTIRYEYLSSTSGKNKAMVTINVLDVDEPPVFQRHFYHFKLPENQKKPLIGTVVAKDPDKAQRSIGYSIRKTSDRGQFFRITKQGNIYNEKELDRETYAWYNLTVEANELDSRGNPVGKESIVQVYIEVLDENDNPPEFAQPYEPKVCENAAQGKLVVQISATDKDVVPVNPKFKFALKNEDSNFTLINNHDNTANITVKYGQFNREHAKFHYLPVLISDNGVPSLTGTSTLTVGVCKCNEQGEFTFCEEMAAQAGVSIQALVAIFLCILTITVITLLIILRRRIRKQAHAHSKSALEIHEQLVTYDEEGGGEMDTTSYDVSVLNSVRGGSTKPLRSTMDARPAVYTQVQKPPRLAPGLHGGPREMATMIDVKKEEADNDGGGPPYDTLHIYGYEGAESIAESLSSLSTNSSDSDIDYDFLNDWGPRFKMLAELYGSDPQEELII

B1: Fibronectin Leucine Rich Transmembrane protein (FLRT) 2 (protein, UniProt O43155 36-660)
chain: CPSVCRCDRNFVYCNERSLTSVPLGIPEGVTVLYLHNNQINNAGFPAELHNVQSVHTVYLYGNQLDEFPMNLPKNVRVLHLQENNIQTISRAALAQLLKLEELHLDDNSISTVGVEDGAFREAISLKLLFLSKNHLSSVPVGLPVDLQELRVDENRIAVISDMAFQNLTSLERLIVDGNLLTNKGIAEGTFSHLTKLKEFSIVRNSLSHPPPDLPGTHLIRLYLQDNQINHIPLTAFSNLRKLERLDISNNQLRMLTQGVFDNLSNLKQLTARNNPWFCDCSIKWVTEWLKYIPSSLNVRGFMCQGPEQVRGMAVRELNMNLLSCPTTTPGLPLFTPAPSTASPTTQPPTLSIPNPSRSYTPPTPTTSKLPTIPDWDGRERVTPPISERIQLSIHFVNDTSIQVSWLSLFTVMAYKLTWVKMGHSLVGGIVQERIVSGEKQHLSLVNLEPRSTYRICLVPLDAFNYRAVEDTICSEATTHASYLNNGSNTASSHEQTTSHSMGSPFLLAGLIGGAVIFVLVVLLSVFCWHMHKKGRYTSQKWKYNRGRRKDDYCEAGTKKDNSILEMTETSFQIVSLNNDQLLKGDFRLQPIYTPNGGINYTDCHIPNNMRYCNSSVPDLEHCHT
B2: Fibronectin Leucine Rich Transmembrane protein (FLRT) 2 (mouse) (protein, UniProt Q8BLU0 36-660)
chain: CPSVCRCDRNFVYCNERSLTSVPLGIPEGVTVLYLHNNQINNAGFPAELHNVQSVHTVYLYGNQLDEFPMNLPKNVRVLHLQENNIQTISRAALAQLLKLEELHLDDNSISTVGVEDGAFREAISLKLLFLSKNHLSSVPVGLPVDLQELRVDENRIAVISDMAFQNLTSLERLIVDGNLLTNKGIAEGTFSHLTKLKEFSIVRNSLSHPPPDLPGTHLIRLYLQDNQINHIPLTAFANLRKLERLDISNNQLRMLTQGVFDHLSNLKQLTARNNPWFCDCSIKWVTEWLKYIPSSLNVRGFMCQGPEQVRGMAVRELNMNLLSCPTTTPGLPVFTPAPSTVSPTTQSPTLSVPSPSRGSVPPAPTPSKLPTIPDWDGRERVTPPISERIQLSIHFVNDTSIQVSWLSLFTVMAYKLTWVKMGHSLVGGIVQERIVSGEKQHLSLVNLEPRSTYRICLVPLDAFNYRTVEDTICSEATTHASYLNNGSNTASSHEQTTSHSMGSPFLLAGLIGGAVIFVLVVLLSVFCWHMHKKGRYTSQKWKYNRGRRKDDYCEAGTKKDNSILEMTETSFQIVSLNNDQLLKGDFRLQPIYTPNGGINYTDCHIPNNMRYCNSSVPDLEHCHT

Experiments:
[1] = target: T1, VE-cadherin (human (endogenous in HUVEC)); test: co-IP; HUVEC lysates (IP buffer: 50 mM Tris/HCl pH 7.4, 150 mM NaCl, 1% NP-40, 0.5% sodium deoxycholate, 1 mM EDTA) incubated with mouse anti-VE-cadherin antibody or IgG control, protein G-agarose; blot for FLRT2
[2] = target: T1, VE-cadherin (human (endogenous in HUVEC)); test: proximity ligation; fixed, permeabilised HUVECs on gelatin-coated coverslips; probe-conjugated goat anti-FLRT2 and anti-VE-cadherin primary antibody with PLA probe MINUS; control without VE-cadherin primary antibody
[3] = target: T2, VE-cadherin (mouse) (mouse (endogenous in brain and primary brain ECs)); test: co-IP; wild-type mouse brain lysates (25 mM Tris HCl pH 7.4, 150 mM NaCl, 5 mM EDTA, 1% NP-40) incubated with goat anti-VE-cadherin antibody or IgG control, Dynabeads Protein G; blot for FLRT2 and VE-cadherin
[4] = target: T2, VE-cadherin (mouse) (mouse (endogenous in brain and primary brain ECs)); test: proximity ligation; fixed primary mouse brain ECs (pmBECs) from control animals; signal diminished in pmBECs from Flrt2 endothelial knock-out mice

Row | Binder | binding [1] | binding [2] | binding [3] | binding [4]
1 | B1 | binds | binds | – | –
2 | B2 | – | – | binds | binds
